Assay results published in article PMC5296754.
No constants are given. Whether binding was seen depends on the method and setting. Some binding calls cover weakened binding; strength is not graded here.

Sequences of proteins named here, by UniProt entry; tags and fusion partners are left off. Residues count along the entry.
UniProt P13128, 39-526: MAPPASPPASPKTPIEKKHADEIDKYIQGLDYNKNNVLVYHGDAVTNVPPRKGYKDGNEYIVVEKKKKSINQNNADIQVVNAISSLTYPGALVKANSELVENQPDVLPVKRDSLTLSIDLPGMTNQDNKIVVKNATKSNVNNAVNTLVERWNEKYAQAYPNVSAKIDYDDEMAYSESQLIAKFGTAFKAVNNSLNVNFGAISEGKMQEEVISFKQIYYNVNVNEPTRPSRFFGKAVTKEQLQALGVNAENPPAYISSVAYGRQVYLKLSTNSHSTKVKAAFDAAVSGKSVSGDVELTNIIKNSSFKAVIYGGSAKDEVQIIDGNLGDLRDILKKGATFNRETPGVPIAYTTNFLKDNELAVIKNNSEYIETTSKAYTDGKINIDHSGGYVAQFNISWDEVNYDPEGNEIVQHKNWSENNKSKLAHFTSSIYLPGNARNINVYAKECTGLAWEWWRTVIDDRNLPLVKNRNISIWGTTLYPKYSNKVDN

Key:
[1] = biological target: Listeriolysin O (Listeria monocytogenes) (UniProt P13128); assay: high-speed atomic force microscopy; 500 nM protein added to POPC:Chol 1:1 supported lipid bilayer on mica; 20 mM MES, pH 5.6, 100 mM NaCl, 5 mM MgCl2, room temperature; oligomers on the membrane; both purified
[2] = biological target: Listeriolysin O (Listeria monocytogenes) (UniProt P13128); assay: transmission electron microscopy (negative stain); 500 nM protein with POPC:Chol multilamellar vesicles (10 mM lipids), 10 mM MES, 150 mM NaCl, pH 5.5, room temperature; contrasted with 1% uranyl acetate; oligomers on the membrane; both purified

“Listeriolysin O (from UniProt P13128 39-526)” was tested, and the binding [1] was “binds” and the binding [2] was “binds”.
